Tested on: scopolamine-treated rats
Assay: Two-trial object recognition paradigm in scopolamine-treated rats
Format: in vivo, Sprague-Dawley rats
Details: for Memory Performance (N-F, difference in time spent with the novel object and familiar object): scopolamine 0.3 mg/kg i.p., mean ± SEM

**Q.** With `COc1cc2c(cc1OC)C(=O)C(CC1CCN(Cc3ccccc3)CC1)C2` (centres unmarked) [Donepezil, 2-[(1-benzyl-4-piperidyl)methyl]-5,6-dimethoxy-2,3-dihydroinden-1-one] as the compound, how does the “Memory Performance (N-F, difference in time spent with the novel object and familiar object)” value (Donepezil 0.01 mg/kg i.p. + vehicle p.o.) read?
**A.** The value was 1.88 ± 0.97 s.

**Q.** And the “Memory Performance (N-F, difference in time spent with the novel object and familiar object)” value (Donepezil 0.03 mg/kg i.p. + vehicle p.o.)?
**A.** The value was 1.17 ± 2.22 s.

**Q.** What about the “Memory Performance (N-F, difference in time spent with the novel object and familiar object)” value (Donepezil 1 mg/kg i.p. + vehicle p.o.) of the same compound?
**A.** The value was 8.8 ± 1.37 s.

**Q.** And the “effect at doses below the maximally effective dose, tested individually” value (dimebon 2.5 mg/kg oral, donepezil 0.03 mg/kg intraperitoneal)?
**A.** Its value is “only partially effective”.

**Q.** What about the maximally effective dose (intraperitoneal) of the same compound?
**A.** Its maximally effective dose is 1 mg/kg.
